{"sequences": {"note": "Sequences of proteins named here, by UniProt entry; tags and fusion partners are left off.", "UniProt P40763": "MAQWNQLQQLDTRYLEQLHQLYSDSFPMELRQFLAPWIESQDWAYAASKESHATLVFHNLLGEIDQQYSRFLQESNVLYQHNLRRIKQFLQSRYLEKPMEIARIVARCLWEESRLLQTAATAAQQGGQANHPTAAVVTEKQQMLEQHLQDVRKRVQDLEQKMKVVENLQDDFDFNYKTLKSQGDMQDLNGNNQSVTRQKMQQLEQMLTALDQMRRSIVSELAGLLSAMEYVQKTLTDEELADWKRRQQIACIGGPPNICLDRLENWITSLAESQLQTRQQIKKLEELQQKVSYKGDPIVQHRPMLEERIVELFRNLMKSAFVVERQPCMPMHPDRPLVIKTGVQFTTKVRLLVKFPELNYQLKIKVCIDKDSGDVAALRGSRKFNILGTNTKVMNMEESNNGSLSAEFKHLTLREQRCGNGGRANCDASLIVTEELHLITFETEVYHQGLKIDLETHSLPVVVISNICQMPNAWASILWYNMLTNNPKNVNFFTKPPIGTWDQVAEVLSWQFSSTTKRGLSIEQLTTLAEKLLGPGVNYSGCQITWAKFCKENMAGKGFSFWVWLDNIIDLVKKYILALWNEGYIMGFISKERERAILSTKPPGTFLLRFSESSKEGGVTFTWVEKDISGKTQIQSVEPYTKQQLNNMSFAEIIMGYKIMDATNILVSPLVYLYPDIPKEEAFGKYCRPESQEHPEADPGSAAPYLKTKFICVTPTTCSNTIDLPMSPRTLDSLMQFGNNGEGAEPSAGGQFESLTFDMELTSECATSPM", "UniProt P31270": "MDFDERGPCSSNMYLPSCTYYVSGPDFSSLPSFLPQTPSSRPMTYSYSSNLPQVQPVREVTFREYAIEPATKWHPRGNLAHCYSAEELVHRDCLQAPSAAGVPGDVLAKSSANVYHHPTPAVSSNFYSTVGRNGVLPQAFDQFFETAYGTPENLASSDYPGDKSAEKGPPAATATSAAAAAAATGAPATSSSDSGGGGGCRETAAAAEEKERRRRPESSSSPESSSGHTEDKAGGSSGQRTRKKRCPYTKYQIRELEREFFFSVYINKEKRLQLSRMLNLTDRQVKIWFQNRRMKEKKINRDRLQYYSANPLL"}, "source": "paper PMC6831465", "target": "Stat3 (human (endogenous in NCI-N87 and SGC-7901)) (UniProt P40763)", "assay": "co-IP; reciprocal co-IP with anti-Stat3 and anti-Flag antibodies coupled to resin (Pierce Co-Immunoprecipitation Kit); 1 mg lysate of NCI-N87-flag-HOXA11 or SGC-7901-flag-HOXA11 cells in IP Lysis/Wash Buffer, overnight at 4 °C; western blot detection", "note": "Results are given in words; binding and its absence hold for the method and conditions named. Binding seen in cells or lysates may run through a third protein."}
{"substance": "Homeobox A11 (HOXA11), flag-tagged (from UniProt P31270 1-313)", "values": [{"measurement": "binding", "result": "no binding"}]}
